Results published in publication PMC6242908.
For at least one entry, the source does not settle the construct or the ends of the probe. No signal at the amounts used counts as a negative.

Biological target: MBP-His6 (UniProt P0AEX9)
Assay: EMSA
Details: tag-only control, G9 and G6 also negative; EMSA: same buffer with BSA and RNAsin, 150 nM RNA/DNA, 2% tris-glycine agarose; recombinant protein; protein details: C-terminal His6; label: 5'-fluorescein

GGGGGGGGGGGG [G12 RNA (native)]
binding result: no binding
